Assay results reported in paper doi:10.1101/219071.

B1: Treacle protein (endogenous) (protein, UniProt Q13428 1-1488)
chain: MAEARKRRELLPLIYHHLLRAGYVRAAREVKEQSGQKCFLAQPVTLLDIYTHWQQTSELGRKRKAEEDAALQAKKTRVSDPISTSESSEEEEEAEAETAKATPRLASTNSSVLGADLPSSMKEKAKAETEKAGKTGNSMPHPATGKTVANLLSGKSPRKSAEPSANTTLVSETEEEGSVPAFGAAAKPGMVSAGQADSSSEDTSSSSDETDVEGKPSVKPAQVKASSVSTKESPARKAAPAPGKVGDVTPQVKGGALPPAKRAKKPEEESESSEEGSESEEEAPAGTRSQVKASEKILQVRAASAPAKGTPGKGATPAPPGKAGAVASQTKAGKPEEDSESSSEESSDSEEETPAAKALLQAKASGKTSQVGAASAPAKESPRKGAAPAPPGKTGPAVAKAQAGKREEDSQSSSEESDSEEEAPAQAKPSGKAPQVRAASAPAKESPRKGAAPAPPRKTGPAAAQVQVGKQEEDSRSSSEESDSDREALAAMNAAQVKPLGKSPQVKPASTMGMGPLGKGAGPVPPGKVGPATPSAQVGKWEEDSESSSEESSDSSDGEVPTAVAPAQEKSLGNILQAKPTSSPAKGPPQKAGPVAVQVKAEKPMDNSESSEESSDSADSEEAPAAMTAAQAKPALKIPQTKACPKKTNTTASAKVAPVRVGTQAPRKAGTATSPAGSSPAVAGGTQRPAEDSSSSEESDSEEEKTGLAVTVGQAKSVGKGLQVKAASVPVKGSLGQGTAPVLPGKTGPTVTQVKAEKQEDSESSEEESDSEEAAASPAQVKTSVKKTQAKANPAAARAPSAKGTISAPGKVVTAAAQAKQRSPSKVKPPVRNPQNSTVLARGPASVPSVGKAVATAAQAQTGPEEDSGSSEEESDSEEEAETLAQVKPSGKTHQIRAALAPAKESPRKGAAPTPPGKTGPSAAQAGKQDDSGSSSEESDSDGEAPAAVTSAQVIKPPLIFVDPNRSPAGPAATPAQAQAASTPRKARASESTARSSSSESEDEDVIPATQCLTPGIRTNVVTMPTAHPRIAPKASMAGASSSKESSRISDGKKQEGPATQVSKKNPASLPLTQAALKVLAQKASEAQPPVARTQPSSGVDSAVGTLPATSPQSTSVQAKGTNKLRKPKLPEVQQATKAPESSDDSEDSSDSSSGSEEDGEGPQGAKSAHTLGPTPSRTETLVEETAAESSEDDVVAPSQSLLSGYMTPGLTPANSQASKATPKLDSSPSVSSTLAAKDDPDGKQEAKPQQAAGMLSPKTGGKEAASGTTPQKSRKPKKGAGNPQASTLALQSNITQCLLGQPWPLNEAQVQASVVKVLTELLEQERKKVVDTTKESSRKGWESRKRKLSGDQPAARTPRSKKKKKLGAGEGGEASVSPEKTSTTSKGKAKRDKASGDVKEKKGKGSLGSQGAKDEPEEELQKGMGTVEGGDQSNPKSKKEKKKSDKRKKDKEKKEKKKKAKKASTKDSESPSQKKKKKKKKTAEQTV
B2: RNA-binding protein 14 (RMB14) (protein, UniProt Q96PK6 1-669)
chain: MKIFVGNVDGADTTPEELAALFAPYGTVMSCAVMKQFAFVHMRENAGALRAIEALHGHELRPGRALVVEMSRPRPLNTWKIFVGNVSAACTSQELRSLFERRGRVIECDVVKDYAFVHMEKEADAKAAIAQLNGKEVKGKRINVELSTKGQKKGPGLAVQSGDKTKKPGAGDTAFPGTGGFSATFDYQQAFGNSTGGFDGQARQPTPPFFGRDRSPLRRSPPRASYVAPLTAQPATYRAQPSVSLGAAYRAQPSASLGVGYRTQPMTAQAASYRAQPSVSLGAPYRGQLASPSSQSAAASSLGPYGGAQPSASALSSYGGQAAAASSLNSYGAQGSSLASYGNQPSSYGAQAASSYGVRAAASSYNTQGAASSLGSYGAQAASYGAQSAASSLAYGAQAASYNAQPSASYNAQSAPYAAQQAASYSSQPAAYVAQPATAAAYASQPAAYAAQATTPMAGSYGAQPVVQTQLNSYGAQASMGLSGSYGAQSAAAATGSYGAAAAYGAQPSATLAAPYRTQSSASLAASYAAQQHPQAAASYRGQPGNAYDGAGQPSAAYLSMSQGAVANANSTPPPYERTRLSPPRASYDDPYKKAVAMSKRYGSDRRLAELSDYRRLSESQLSFRRSPTKSSLDYRRLPDAHSDYARYSGSYNDYLRAAQMHSGYQRRM

Target: HeV M protein fused to green fluorescent protein (GFP-HeV M), wild type (Hendra virus) (UniProt O89341)
Experiment: affinity purification with mass spectrometry

Row | Molecule | binding
1 | nucleolar and coiled-body phosphoprotein 1 (NOLC1) (from UniProt Q14978 1-699) | binds
2 | B1 | binds
3 | B2 | binds

Results are given in words; binding and its absence hold for the method and conditions named. Binding seen in cells or lysates may run through a third protein. These calls come from enrichment with a bait or labelling near it, and not all partners need be listed.
